Measurements: patent US20120282177A1 (published 2012)
No constants are given. Whether binding was seen depends on the method and setting. Some entries that bind do so weakly or less than the wild type.

Protein sequences, listed by entry. Tags and fused reporters are not part of them. Lines headed by an entry give the natural chain unless they say otherwise; changes in a name come on top.
UniProt Q01973: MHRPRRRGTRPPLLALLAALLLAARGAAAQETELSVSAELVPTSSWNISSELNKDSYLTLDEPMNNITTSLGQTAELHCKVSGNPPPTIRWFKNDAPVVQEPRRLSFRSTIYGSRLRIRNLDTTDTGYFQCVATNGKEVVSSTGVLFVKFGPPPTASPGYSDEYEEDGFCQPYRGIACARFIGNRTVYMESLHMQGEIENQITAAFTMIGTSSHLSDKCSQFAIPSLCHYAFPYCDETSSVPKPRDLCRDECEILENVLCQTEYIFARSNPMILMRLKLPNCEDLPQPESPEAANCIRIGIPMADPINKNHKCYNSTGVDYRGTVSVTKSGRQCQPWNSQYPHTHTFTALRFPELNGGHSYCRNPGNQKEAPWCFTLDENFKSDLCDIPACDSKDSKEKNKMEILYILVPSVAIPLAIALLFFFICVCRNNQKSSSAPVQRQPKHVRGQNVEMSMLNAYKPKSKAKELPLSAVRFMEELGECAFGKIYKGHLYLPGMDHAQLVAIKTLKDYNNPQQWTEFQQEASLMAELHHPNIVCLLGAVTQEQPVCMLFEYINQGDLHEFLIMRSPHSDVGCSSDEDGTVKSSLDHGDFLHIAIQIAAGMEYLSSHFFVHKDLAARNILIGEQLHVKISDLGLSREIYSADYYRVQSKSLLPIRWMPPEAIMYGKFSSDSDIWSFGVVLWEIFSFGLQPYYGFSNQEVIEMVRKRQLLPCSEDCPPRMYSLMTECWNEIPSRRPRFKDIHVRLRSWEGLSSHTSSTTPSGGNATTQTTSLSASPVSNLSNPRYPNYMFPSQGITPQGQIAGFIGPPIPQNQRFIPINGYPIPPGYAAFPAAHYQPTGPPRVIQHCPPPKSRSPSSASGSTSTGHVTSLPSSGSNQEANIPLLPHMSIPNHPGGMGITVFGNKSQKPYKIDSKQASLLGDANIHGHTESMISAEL

Legend:
[1] = molecular target: Tyrosine-protein kinase transmembrane receptor ROR1 (Long Isoform), human, on the cell surface (human) (UniProt Q01973); assay: flow cytometry on HT29 and NCI-H69 cells (FIG. 5b; members by paragraph 474)
[2] = molecular target: Tyrosine-protein kinase transmembrane receptor ROR1 (Long Isoform), human, on the cell surface (human) (UniProt Q01973); assay: flow cytometry, legend of FIGS. 5a and 5b (members and cell lines per antibody named in paragraph 474)
[3] = molecular target: Tyrosine-protein kinase transmembrane receptor ROR1 (Long Isoform), human, on the cell surface (human) (UniProt Q01973); assay: flow cytometry on A549 cells (FIG. 5a)
[4] = molecular target: Tyrosine-protein kinase transmembrane receptor ROR1 (Long Isoform), human, on the cell surface (human) (UniProt Q01973); assay: flow cytometry on A549 and HT29 cells (FIG. 5b)

Measured: binding

B1: ROR1_A8 (Fab, V domains shown)
VH: DVQVVESGGGLVKPGGSLKLSCAASGFTFSSYAMSWVRQTPEKRLEWVAAINPNGGSTYYPDTVKGRFTISRDNAKNTLYLQMSGLRSEDTALYYCARLPWSPYTLDYWGQGTSVTVSS
VL: NIVMTQSPVSLSMAIGEKVTIRCITNTDIDDAMNWYQQKPGEPPKLLISEGNTLRPGVPSRFSSSGYGTDFVFTIENMLSEDVADYYCLQTDNLPLTFGSGTKLAIKR
binds: all assays above
